No constants are given. Whether binding was seen depends on the method and setting. Binding seen in cells or lysates may run through a third protein. These calls come from enrichment with a bait or labelling near it, and not all partners need be listed.
Molecular target: endogenous KEAP1 (human (endogenous in H1299)) (UniProt Q14145)
Test: affinity purification with mass spectrometry; H1299 lysate (25 mM Tris-HCl, 150 mM NaCl, 1 mM EDTA, 1% NP-40), IP overnight at 4 °C with anti-KEAP1 antibody or normal rabbit IgG, protein G sepharose; gel lanes analysed by mass spectrometry; one round of discovery

Sequences of proteins named here, by UniProt entry; tags and fusion partners are left off.
UniProt Q14145: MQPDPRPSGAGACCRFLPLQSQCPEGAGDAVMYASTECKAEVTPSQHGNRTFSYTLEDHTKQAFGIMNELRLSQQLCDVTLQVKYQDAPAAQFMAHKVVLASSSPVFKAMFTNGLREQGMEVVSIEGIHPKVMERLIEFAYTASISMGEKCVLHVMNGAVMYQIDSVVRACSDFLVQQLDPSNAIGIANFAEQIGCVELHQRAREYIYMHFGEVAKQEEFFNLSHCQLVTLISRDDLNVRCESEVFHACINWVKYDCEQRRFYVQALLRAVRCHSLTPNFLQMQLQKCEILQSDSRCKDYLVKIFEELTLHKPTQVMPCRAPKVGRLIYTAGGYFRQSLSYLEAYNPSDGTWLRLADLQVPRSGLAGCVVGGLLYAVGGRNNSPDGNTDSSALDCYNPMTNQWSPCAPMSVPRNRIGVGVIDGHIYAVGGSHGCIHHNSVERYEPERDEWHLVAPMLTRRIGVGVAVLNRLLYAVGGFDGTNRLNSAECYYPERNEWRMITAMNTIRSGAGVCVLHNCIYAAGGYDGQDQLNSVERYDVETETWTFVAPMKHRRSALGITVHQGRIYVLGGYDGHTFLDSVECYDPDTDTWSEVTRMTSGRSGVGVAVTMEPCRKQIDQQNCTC

binding: binds
B1: endogenous PIDD (protein, UniProt Q9HB75 1-910)
chain: MAATVEGPELEAAAAAGDASEDSDAGSRALPFLGGNRLSLDLYPGGCQQLLHLCVQQPLQLLQVEFLRLSTHEDPQLLEATLAQLPQSLSCLRSLVLKGGQRRDTLGACLRGALTNLPAGLSGLAHLAHLDLSFNSLETLPACVLQMRGLGALLLSHNCLSELPEALGALPALTFLTVTHNRLQTLPPALGALSTLQRLDLSQNLLDTLPPEIGGLGSLLELNLASNRLQSLPASLAGLRSLRLLVLHSNLLASVPADLARLPLLTRLDLRDNQLRDLPPELLDAPFVRLQGNPLGEASPDAPSSPVAALIPEMPRLFLTSDLDSFPVTPQGCSVTLACGVRLQFPAGATATPITIRYRLLLPEPGLVPLGPHDALLSHVLELQPHGVAFQQDVGLWLLFTPPQARRCREVVVRTRNDNSWGDLETYLEEEAPQRLWAHCQVPHFSWFLVVSRPVSNACLVPPEGTLLCSSGHPGVKVIFPPGATEEPRRVSMQVVRMAGRELQALLGEPEAAVSPLLCLSQSGPPSFLQPVTVQLPLPSGITGLSLDRSRLHLLYWAPPAATWDDITAQVVLELTHLYARFQVTHFSWYWLWYTTKNCVGGLARKAWERLRLHRVNLIALQRRRDPEQVLLQCLPRNKVDATLRRLLERYRGPEPSDTVEMFEGEEFFAAFERGIDVDADRPDCVEGRICFVFYSHLKNVKEVYVTTTLDREAQAVRGQVSFYRGAVPVRVPEEAEAARQRKGADALWMATLPIKLPRLRGSEGPRRGAGLSLAPLNLGDAETGFLTQSNLLSVAGRLGLDWPAVALHLGVSYREVQRIRHEFRDDLDEQIRHMLFSWAERQAGQPGAVGLLVQALEQSDRQDVAEEVRAVLELGRRKYQDSIRRMGLAPKDPALPGSSAPQPPEPAQA
